# According to the supplement of paper PMC8728848:
# The list shows a part of the results.
# B1: Epa20 (Candida glabrata) (protein)
# chain: MGSSHHHHHHSSGLVPRGSHMASSNIPNNYPLGCSNKYSGHLPGLKMELYSYNYVNPRHPDPQNPGKLDQLYDPNLLGTYECFDSSYKDINYPRVGYKSKTLIGRSDGVSGILNFNFVPPWGCMPQKGQLPPAYNFKSNITLSNFTMILFGYFKPKISGNHIFSLHGDDLIYLNFGAGNAFDCCRQESSADNFGNYQAFSLWGINWEKKTLTVYLDMNTYYPIRIFYNNRDYQAIFNFSFKTEFDSSPVIDFQDYFFFLRDIDGGCPGEV
# What was measured:
# Assay in all cases: glycan array binding signal (z-score within array); higher = stronger binding
# Conditions in all cases: glycan notation: IUPAC condensed, linker removed
# [1] = target: Gal(b1-4)GlcNAc(b1-2)Man(a1-6)[GlcNAc(b1-2)Man(a1-3)]Man(b1-4)GlcNAc(b1-4)GlcNAc
# In short: (§1)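 From the Consortium for Functional Glycomics database, 3228 arrays were curated, keeping only those whose protein sequence was available. Binding is given as a within-array Z-score averaged across arrays sharing a protein sequence and across linkers. Negative Z-scores can be read as non-binding.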
# [2] = target: Gal(b1-4)GlcNAc(b1-2)Man(a1-6)[Man(a1-3)]Man(b1-4)GlcNAc(b1-4)GlcNAc
# In short: as §1
# [3] = target: Gal(b1-4)GlcNAc(b1-2)[Gal(b1-4)GlcNAc(b1-4)]Man(a1-3)[Gal(b1-4)GlcNAc(b1-2)Man(a1-6)]Man(b1-4)GlcNAc(b1-4)GlcNAc
# In short: as §1
# [4] = target: Gal(b1-4)GlcNAc(b1-2)[Gal(b1-4)GlcNAc(b1-4)]Man(a1-3)[Gal(b1-4)GlcNAc(b1-2)[Gal(b1-4)GlcNAc(b1-6)]Man(a1-6)]Man(b1-4)GlcNAc(b1-4)GlcNAc
# In short: as §1
# [5] = target: Gal(b1-4)GlcNAc(b1-2)[Gal(b1-4)GlcNAc(b1-4)]Man(a1-3)[GlcNAc(b1-4)][Gal(b1-4)GlcNAc(b1-2)Man(a1-6)]Man(b1-4)GlcNAc(b1-4)GlcNAc
# In short: as §1
# [6] = target: Gal(b1-4)GlcNAc(b1-2)[Gal(b1-4)GlcNAc(b1-4)]Man(a1-3)[GlcNAc(b1-4)][Gal(b1-4)GlcNAc(b1-2)[Gal(b1-4)GlcNAc(b1-6)]Man(a1-6)]Man(b1-4)GlcNAc(b1-4)GlcNAc
# In short: as §1
# [7] = target: Gal(b1-4)GlcNAc(b1-2)[Gal(b1-4)GlcNAc(b1-6)]Man(a1-6)[Gal(b1-4)GlcNAc(b1-2)Man(a1-3)]Man(b1-4)GlcNAc(b1-4)GlcNAc
# In short: as §1
# [8] = target: Gal(b1-4)GlcNAc(b1-2)[Gal(b1-4)GlcNAc(b1-6)]Man(a1-6)[Gal(b1-4)GlcNAc(b1-2)Man(a1-3)]Man(b1-4)GlcNAc(b1-4)[Fuc(a1-6)]GlcNAc
# In short: as §1
# [9] = target: Gal(b1-4)GlcNAc(b1-2)[Gal(b1-4)GlcNAc(b1-6)]Man(a1-6)[GlcNAc(b1-4)][Gal(b1-4)GlcNAc(b1-2)Man(a1-3)]Man(b1-4)GlcNAc(b1-4)GlcNAc
# In short: as §1
# [10] = target: Gal(b1-4)GlcNAc(b1-2)[Gal(b1-4)GlcNAc(b1-6)]Man(a1-6)[GlcNAc(b1-4)][Gal(b1-4)GlcNAc(b1-2)[Gal(b1-4)GlcNAc(b1-4)]Man(a1-3)]Man(b1-4)GlcNAc(b1-4)[Fuc(a1-6)]GlcNAc
# In short: as §1
# [11] = target: Gal(b1-4)GlcNAc(b1-3)Gal(b1-3)GalNAc
# In short: as §1
# [12] = target: Gal(b1-4)GlcNAc(b1-3)Gal(b1-3)GlcNAc
# In short: as §1
# [13] = target: Gal(b1-4)GlcNAc(b1-3)Gal(b1-4)Glc
# In short: as §1
# [14] = target: Gal(b1-4)GlcNAc(b1-3)Gal(b1-4)GlcNAc
# In short: as §1
# [15] = target: Gal(b1-4)GlcNAc(b1-3)Gal(b1-4)GlcNAc(b1-2)Man(a1-3)[Gal(b1-4)GlcNAc(b1-3)Gal(b1-4)GlcNAc(b1-2)Man(a1-6)]Man(b1-4)GlcNAc(b1-4)GlcNAc
# In short: as §1
# [16] = target: Gal(b1-4)GlcNAc(b1-3)Gal(b1-4)GlcNAc(b1-2)Man(a1-3)[Gal(b1-4)GlcNAc(b1-3)Gal(b1-4)GlcNAc(b1-2)Man(a1-6)]Man(b1-4)GlcNAc(b1-4)[Fuc(a1-6)]GlcNAc
# In short: as §1
# [17] = target: Gal(b1-4)GlcNAc(b1-3)Gal(b1-4)GlcNAc(b1-2)[Gal(b1-4)GlcNAc(b1-3)Gal(b1-4)GlcNAc(b1-6)]Man(a1-6)[Gal(b1-4)GlcNAc(b1-3)Gal(b1-4)GlcNAc(b1-2)Man(a1-3)]Man(b1-4)GlcNAc(b1-4)GlcNAc
# In short: as §1
# [18] = target: Gal(b1-4)GlcNAc(b1-3)Gal(b1-4)GlcNAc(b1-2)[Gal(b1-4)GlcNAc(b1-3)Gal(b1-4)GlcNAc(b1-6)]Man(a1-6)[Gal(b1-4)GlcNAc(b1-3)Gal(b1-4)GlcNAc(b1-2)Man(a1-3)]Man(b1-4)GlcNAc(b1-4)[Fuc(a1-6)]GlcNAc
# In short: as §1
# [19] = target: Gal(b1-4)GlcNAc(b1-3)Gal(b1-4)GlcNAc(b1-3)Gal(b1-4)GlcNAc
# In short: as §1
# [20] = target: Gal(b1-4)GlcNAc(b1-3)Gal(b1-4)GlcNAc(b1-3)Gal(b1-4)GlcNAc(b1-2)Man(a1-3)[Gal(b1-4)GlcNAc(b1-3)Gal(b1-4)GlcNAc(b1-3)Gal(b1-4)GlcNAc(b1-2)Man(a1-6)]Man(b1-4)GlcNAc(b1-4)GlcNAc
# In short: as §1
# [21] = target: Gal(b1-4)GlcNAc(b1-3)Gal(b1-4)GlcNAc(b1-3)Gal(b1-4)GlcNAc(b1-2)Man(a1-3)[Gal(b1-4)GlcNAc(b1-3)Gal(b1-4)GlcNAc(b1-3)Gal(b1-4)GlcNAc(b1-2)Man(a1-6)]Man(b1-4)GlcNAc(b1-4)[Fuc(a1-6)]GlcNAc
# In short: as §1
# [22] = target: Gal(b1-4)GlcNAc(b1-3)Gal(b1-4)GlcNAc(b1-3)Gal(b1-4)GlcNAc(b1-2)[Gal(b1-4)GlcNAc(b1-3)Gal(b1-4)GlcNAc(b1-3)Gal(b1-4)GlcNAc(b1-6)]Man(a1-6)[Gal(b1-4)GlcNAc(b1-3)Gal(b1-4)GlcNAc(b1-3)Gal(b1-4)GlcNAc(b1-2)Man(a1-3)]Man(b1-4)GlcNAc(b1-4)[Fuc(a1-6)]GlcNAc
# In short: as §1
# [23] = target: Gal(b1-4)GlcNAc(b1-3)Gal(b1-4)GlcNAc(b1-3)Gal(b1-4)GlcNAc(b1-3)Gal(b1-4)GlcNAc(b1-2)Man(a1-3)[Gal(b1-4)GlcNAc(b1-3)Gal(b1-4)GlcNAc(b1-3)Gal(b1-4)GlcNAc(b1-3)Gal(b1-4)GlcNAc(b1-2)Man(a1-6)]Man(b1-4)GlcNAc(b1-4)GlcNAc
# In short: as §1
# [24] = target: Gal(b1-4)GlcNAc(b1-3)Gal(b1-4)GlcNAc(b1-3)Gal(b1-4)GlcNAc(b1-3)Gal(b1-4)GlcNAc(b1-2)Man(a1-3)[Gal(b1-4)GlcNAc(b1-3)Gal(b1-4)GlcNAc(b1-3)Gal(b1-4)GlcNAc(b1-3)Gal(b1-4)GlcNAc(b1-2)Man(a1-6)]Man(b1-4)GlcNAc(b1-4)[Fuc(a1-6)]GlcNAc
# In short: as §1
# [25] = target: Gal(b1-4)GlcNAc(b1-3)Gal(b1-4)GlcNAc(b1-3)Gal(b1-4)GlcNAc(b1-3)Gal(b1-4)GlcNAc(b1-2)[Gal(b1-4)GlcNAc(b1-3)Gal(b1-4)GlcNAc(b1-3)Gal(b1-4)GlcNAc(b1-3)Gal(b1-4)GlcNAc(b1-6)]Man(a1-6)[Gal(b1-4)GlcNAc(b1-3)Gal(b1-4)GlcNAc(b1-3)Gal(b1-4)GlcNAc(b1-3)Gal(b1-4)GlcNAc(b1-2)Man(a1-3)]Man(b1-4)GlcNAc(b1-4)[Fuc(a1-6)]GlcNAc
# In short: as §1
# [26] = target: Gal(b1-4)GlcNAc(b1-3)Gal(b1-4)GlcNAc(b1-3)Gal(b1-4)GlcNAc(b1-3)Gal(b1-4)GlcNAc(b1-3)Gal(b1-4)GlcNAc(b1-2)Man(a1-3)[Gal(b1-4)GlcNAc(b1-3)Gal(b1-4)GlcNAc(b1-3)Gal(b1-4)GlcNAc(b1-3)Gal(b1-4)GlcNAc(b1-3)Gal(b1-4)GlcNAc(b1-2)Man(a1-6)]Man(b1-4)GlcNAc(b1-4)GlcNAc
# In short: as §1
# [27] = target: Gal(b1-4)GlcNAc(b1-3)Gal(b1-4)GlcNAc(b1-3)Gal(b1-4)GlcNAc(b1-3)Gal(b1-4)GlcNAc(b1-3)Gal(b1-4)GlcNAc(b1-2)Man(a1-3)[Gal(b1-4)GlcNAc(b1-3)Gal(b1-4)GlcNAc(b1-3)Gal(b1-4)GlcNAc(b1-3)Gal(b1-4)GlcNAc(b1-3)Gal(b1-4)GlcNAc(b1-2)Man(a1-6)]Man(b1-4)GlcNAc(b1-4)[Fuc(a1-6)]GlcNAc
# In short: as §1
# [28] = target: Gal(b1-4)GlcNAc(b1-3)Gal(b1-4)GlcNAc(b1-3)Gal(b1-4)GlcNAc(b1-3)Gal(b1-4)GlcNAc(b1-3)Gal(b1-4)GlcNAc(b1-2)[Gal(b1-4)GlcNAc(b1-3)Gal(b1-4)GlcNAc(b1-3)Gal(b1-4)GlcNAc(b1-3)Gal(b1-4)GlcNAc(b1-3)Gal(b1-4)GlcNAc(b1-6)]Man(a1-6)[Gal(b1-4)GlcNAc(b1-3)Gal(b1-4)GlcNAc(b1-3)Gal(b1-4)GlcNAc(b1-3)Gal(b1-4)GlcNAc(b1-3)Gal(b1-4)GlcNAc(b1-2)Man(a1-3)]Man(b1-4)GlcNAc(b1-4)[Fuc(a1-6)]GlcNAc
# In short: as §1
# [29] = target: Gal(b1-4)GlcNAc(b1-3)Gal(b1-4)GlcNAc(b1-3)Gal(b1-4)GlcNAc(b1-3)Gal(b1-4)GlcNAc(b1-3)Gal(b1-4)GlcNAc(b1-3)Gal(b1-4)GlcNAc(b1-2)Man(a1-3)[Gal(b1-4)GlcNAc(b1-3)Gal(b1-4)GlcNAc(b1-3)Gal(b1-4)GlcNAc(b1-3)Gal(b1-4)GlcNAc(b1-3)Gal(b1-4)GlcNAc(b1-3)Gal(b1-4)GlcNAc(b1-2)Man(a1-6)]Man(b1-4)GlcNAc(b1-4)GlcNAc
# In short: as §1
# [30] = target: Gal(b1-4)GlcNAc(b1-3)Gal(b1-4)GlcNAc(b1-3)GalNAc
# In short: as §1
# [31] = target: Gal(b1-4)GlcNAc(b1-3)Gal(b1-4)GlcNAc(b1-3)[Gal(b1-4)GlcNAc(b1-3)Gal(b1-4)GlcNAc(b1-6)]GalNAc
# In short: as §1
# [32] = target: Gal(b1-4)GlcNAc(b1-3)Gal(b1-4)GlcNAc(b1-6)[Gal(b1-3)]GalNAc
# In short: as §1
# [33] = target: Gal(b1-4)GlcNAc(b1-3)Gal(b1-4)[Fuc(a1-3)]GlcNAc(b1-3)Gal(b1-4)[Fuc(a1-3)]GlcNAc
# In short: as §1
# [34] = target: Gal(b1-4)GlcNAc(b1-3)GalNAc
# In short: as §1
# [35] = target: Gal(b1-4)GlcNAc(b1-3)[Fuc(a1-3)GlcNAc(b1-6)]Gal(b1-4)Glc
# In short: as §1
# [36] = target: Gal(b1-4)GlcNAc(b1-3)[Gal(b1-4)GlcNAc(b1-6)]Gal(b1-4)GlcNAc
# In short: as §1
# [37] = target: Gal(b1-4)GlcNAc(b1-3)[GlcNAc(b1-6)]Gal(b1-4)GlcNAc
# In short: as §1
binder,measurement,setting,value
B1,glycan array binding signal (z-score),[1],0.14
same,glycan array binding signal (z-score),[2],-0.359
same,glycan array binding signal (z-score),[3],-0.453
same,glycan array binding signal (z-score),[4],-0.504
same,glycan array binding signal (z-score),[5],0.325
same,glycan array binding signal (z-score),[6],-0.404
same,glycan array binding signal (z-score),[7],-0.662
same,glycan array binding signal (z-score),[8],-0.459
same,glycan array binding signal (z-score),[9],-0.48
same,glycan array binding signal (z-score),[10],-0.764
same,glycan array binding signal (z-score),[11],-0.313
same,glycan array binding signal (z-score),[12],-0.218
same,glycan array binding signal (z-score),[13],0.444
same,glycan array binding signal (z-score),[14],-0.384
same,glycan array binding signal (z-score),[15],2.48
same,glycan array binding signal (z-score),[16],0.003
same,glycan array binding signal (z-score),[17],0.965
same,glycan array binding signal (z-score),[18],1.2
same,glycan array binding signal (z-score),[19],-0.401
same,glycan array binding signal (z-score),[20],3.18
same,glycan array binding signal (z-score),[21],0.649
same,glycan array binding signal (z-score),[22],1.32
same,glycan array binding signal (z-score),[23],1.13
same,glycan array binding signal (z-score),[24],1.23
same,glycan array binding signal (z-score),[25],1.43
same,glycan array binding signal (z-score),[26],1.25
same,glycan array binding signal (z-score),[27],6.07
same,glycan array binding signal (z-score),[28],1.44
same,glycan array binding signal (z-score),[29],0.124
same,glycan array binding signal (z-score),[30],1.1
same,glycan array binding signal (z-score),[31],2.38
same,glycan array binding signal (z-score),[32],0.585
same,glycan array binding signal (z-score),[33],-1.35
same,glycan array binding signal (z-score),[34],-0.537
same,glycan array binding signal (z-score),[35],-0.202
same,glycan array binding signal (z-score),[36],-0.16
same,glycan array binding signal (z-score),[37],-0.32

# Part of the list above in a different format:
binder | measurement | setting | value
B1 | glycan array binding signal (z-score) | [8] | -0.459
same | glycan array binding signal (z-score) | [9] | -0.48
